Columns and labels:
aptamer 9.3t = test: Isothermal titration calorimetry, two-sites binding model (Table 5)
Aptamer Ch-9.3t = test: Isothermal titration calorimetry (Example V, Table 3); format: binding; details: ITC, 298K, PBS

For Protamine, the TΔS (aptamer 9.3t; first stage binding) was 5.16 kJ mol^−1 K, the ΔG (aptamer 9.3t; first stage binding) was -10.21 kcal/mol and the ΔH (aptamer 9.3t; first stage binding) was -8.979 kcal/mol.
In the case of `NCCCNCCCCNCCCN` [Spermine], the TΔS (Aptamer Ch-9.3t) is reported as “+21.3 kJ mol^−1”, the ΔG (Aptamer Ch-9.3t) is reported as -5.38 kcal/mol and the ΔH (Aptamer Ch-9.3t) is reported as -0.282 kcal/mol. The TΔS (aptamer 9.3t; first stage binding) was 34.42 kJ mol^−1 K, the ΔG (aptamer 9.3t; first stage binding) was -8.468 kcal/mol and the ΔH (aptamer 9.3t; first stage binding) was -0.241 kcal/mol. For the same compound, the TΔS (aptamer 9.3t; second stage binding) was 28.80 kJ mol^−1 K, the ΔG (aptamer 9.3t; second stage binding) was -6.955 kcal/mol and the ΔH (aptamer 9.3t; second stage binding) was -0.0717 kcal/mol.

Reference: US9901553B2, “Method of modulating the activity of a nucleic acid molecule” (DUKE UNIVERSITY, priority 2007, dated 2018)
